Reference: article PMC6262856
No constants are given. Whether binding was seen depends on the method and setting. In cells and extracts the contact can be indirect. Some results given as binding are weak or reduced against the parent protein; the word gives no strength.

The chains behind the UniProt entries cited, without tags or fusion partners.
UniProt P60842: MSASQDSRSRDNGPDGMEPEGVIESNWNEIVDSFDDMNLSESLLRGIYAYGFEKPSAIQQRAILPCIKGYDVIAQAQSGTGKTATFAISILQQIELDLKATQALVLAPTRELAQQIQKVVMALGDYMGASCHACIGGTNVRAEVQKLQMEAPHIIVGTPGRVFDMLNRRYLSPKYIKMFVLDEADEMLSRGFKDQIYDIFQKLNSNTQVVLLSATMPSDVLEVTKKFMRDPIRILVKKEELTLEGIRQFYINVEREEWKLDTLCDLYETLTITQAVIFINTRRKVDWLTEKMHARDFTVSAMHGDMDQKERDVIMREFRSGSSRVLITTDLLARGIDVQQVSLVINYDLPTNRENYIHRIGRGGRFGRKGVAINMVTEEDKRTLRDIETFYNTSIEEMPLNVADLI
UniProt O43432: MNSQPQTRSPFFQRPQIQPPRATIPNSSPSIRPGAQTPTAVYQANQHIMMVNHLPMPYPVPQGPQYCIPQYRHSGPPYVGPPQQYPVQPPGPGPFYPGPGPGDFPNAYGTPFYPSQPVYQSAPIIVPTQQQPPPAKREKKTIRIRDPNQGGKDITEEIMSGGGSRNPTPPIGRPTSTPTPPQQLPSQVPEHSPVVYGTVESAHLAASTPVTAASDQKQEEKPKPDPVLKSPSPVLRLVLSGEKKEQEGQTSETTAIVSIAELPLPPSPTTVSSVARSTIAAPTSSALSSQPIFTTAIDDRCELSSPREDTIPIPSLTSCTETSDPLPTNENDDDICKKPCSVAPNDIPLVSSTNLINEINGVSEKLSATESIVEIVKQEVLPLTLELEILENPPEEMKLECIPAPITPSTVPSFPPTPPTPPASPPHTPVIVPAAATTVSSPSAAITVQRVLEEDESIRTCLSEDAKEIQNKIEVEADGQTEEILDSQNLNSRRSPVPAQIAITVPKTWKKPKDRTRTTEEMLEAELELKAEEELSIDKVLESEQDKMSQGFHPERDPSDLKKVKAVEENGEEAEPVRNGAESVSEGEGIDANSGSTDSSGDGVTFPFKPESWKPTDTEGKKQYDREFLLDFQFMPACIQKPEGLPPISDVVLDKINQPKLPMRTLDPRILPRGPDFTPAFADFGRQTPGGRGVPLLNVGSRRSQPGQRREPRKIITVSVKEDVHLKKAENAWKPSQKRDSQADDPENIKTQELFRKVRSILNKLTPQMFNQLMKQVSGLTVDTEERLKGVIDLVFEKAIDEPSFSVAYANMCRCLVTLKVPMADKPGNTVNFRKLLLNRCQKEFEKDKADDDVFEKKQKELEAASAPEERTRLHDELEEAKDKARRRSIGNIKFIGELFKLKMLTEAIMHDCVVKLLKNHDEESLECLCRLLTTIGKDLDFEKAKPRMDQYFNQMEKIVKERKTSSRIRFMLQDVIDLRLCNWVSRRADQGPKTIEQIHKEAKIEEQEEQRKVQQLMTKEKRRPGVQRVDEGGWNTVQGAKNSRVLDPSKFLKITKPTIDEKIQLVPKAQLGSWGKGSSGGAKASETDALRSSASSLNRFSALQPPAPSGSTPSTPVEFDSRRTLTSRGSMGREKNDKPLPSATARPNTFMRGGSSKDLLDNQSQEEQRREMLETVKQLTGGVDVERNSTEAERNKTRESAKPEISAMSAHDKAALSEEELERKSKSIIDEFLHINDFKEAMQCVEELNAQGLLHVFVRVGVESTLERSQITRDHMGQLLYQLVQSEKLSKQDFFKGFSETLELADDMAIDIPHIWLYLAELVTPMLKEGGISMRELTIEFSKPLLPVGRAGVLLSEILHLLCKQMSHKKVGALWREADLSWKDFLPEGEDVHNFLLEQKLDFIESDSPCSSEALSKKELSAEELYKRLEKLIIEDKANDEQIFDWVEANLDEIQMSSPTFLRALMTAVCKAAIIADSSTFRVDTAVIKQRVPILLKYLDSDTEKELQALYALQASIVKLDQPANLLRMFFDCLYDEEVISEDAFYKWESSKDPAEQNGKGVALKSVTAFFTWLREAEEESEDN

Molecular target: FLAG-eIF4A1 (human) (UniProt P60842)
Assay: co-IP; 293T cells lysed in NP-40 lysis buffer; pre-cleared lysates treated with EtOH or 15d-PGJ2 at 30°C for 1 h; anti-FLAG antibody on protein G agarose, 4°C 1 h; western blot of the precipitate

Substance: GFP-eIF4GII (from UniProt O43432 1-1585)
- binding: binds weakly
